Source: PubChem BioAssay AID1224828 (NIAID, 2016)

- Assay: 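Knock-downs that increase or decrease LPS-induced p65 nuclear translocation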 (primary screen)
- Cell system: mouse RAW264.7 G9 macrophage reporter cells (GFP-p65, Tnf promoter-mCherry)
- Reagents: siRNA pool against mouse genes, 100 nM
- Timing: 2 days siRNA transfection, then 40 min LPS before fixation
- Treatment: LPS (Salmonella minnesota R595) at 10 ng/ml
- Detection: 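Microscopy ratio of nuclear to perinuclear-ring GFP-p65 signal, scaled to the plate median; gene score is the average of two replicate robust z-scores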
- Direction: p65 translocation robust z-score: higher = more nuclear NF-kappaB p65 after LPS than the plate median; nuclear/cytoplasmic p65 ratio: higher = more nuclear NF-kappaB p65
- Hit rule: 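Called active when z exceeds 3.3 or falls under -1.56 (median of Tlr4 controls), giving activity score of at least 50; no calls for control wells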
- Calls: active = hit (p65 shift raised or lowered); inactive = no clear change
The whole screen tested about 17,000 reagents; shown is a random part of them. 762 of them (4.5%) were called active. 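Active calls include both raised and lowered p65 entry, mostly lowered; wells with fewer than 50 cells lack a z-score.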 The raw values are shown without normalisation. A reagent listed more than once was tested more than once; the source does not tell the runs apart.

Gene	p65 translocation robust z-score	nuclear/cytoplasmic p65 ratio, rep 1	nuclear/cytoplasmic p65 ratio, rep 2	low cell count flag	activity call
Abca1	-0.26	1.56	1.58	enough cells to score	inactive
Mgat5	0.93	1.81	1.73	enough cells to score	inactive
Plpp3	-0.4	1.4	1.39	enough cells to score	inactive
Eda	0.57	1.38	1.59	enough cells to score	inactive
Or4c11b	-0.65	1.62	1.58	enough cells to score	inactive
Zfp944		1.36	1.47	fewer than 50 cells per well; well left out of scoring	inactive
Raet1c	0.42	1.44	1.26	enough cells to score	inactive
Tiam2	-0.21	1.39	1.13	enough cells to score	inactive
Tnfrsf8	-1.26	1.33	1.3	enough cells to score	inactive
Maml3	-1.12	1.22	1.43	enough cells to score	inactive
Ubr5	0.26	1.67	1.63	enough cells to score	inactive
8030498B09Rik		1.24	1.16	fewer than 50 cells per well; well left out of scoring	inactive
Zcchc18	-1.18	1.28	1.37	enough cells to score	inactive
Stk40	1.46	2.01	1.5	enough cells to score	inactive
Stk40		1.26	1.19	fewer than 50 cells per well; well left out of scoring	inactive
Pold3	-1.25	1.22	1.08	enough cells to score	inactive
Phospho1	0.7	1.54	1.55	enough cells to score	inactive
Atp7b	0.15	1.67	1.6	enough cells to score	inactive
Amfr	-0.18	1.59	1.59	enough cells to score	inactive
Ube2t	2.28	1.81	2.1	enough cells to score	inactive
Rcor2	1.08	1.56	1.34	enough cells to score	inactive
Btc		1.59	1.29	fewer than 50 cells per well; well left out of scoring	inactive
Dcxr	-0.58	1.38	1.32	enough cells to score	inactive
Tmed5		1.33	1.09	fewer than 50 cells per well; well left out of scoring	inactive
Gimap5	0.61	1.52	1.47	enough cells to score	inactive
Zfp473	-0.43	1.52	1.7	enough cells to score	inactive
Slc15a3	1.97	1.65	1.5	enough cells to score	inactive
Slitrk5		1.03	1.19	fewer than 50 cells per well; well left out of scoring	inactive
Sema3a	-0.01	1.6	1.5	enough cells to score	inactive
Aqp12	1.1	1.6	2.03	enough cells to score	inactive
Or13p4	2.25	1.38	1.72	enough cells to score	inactive
Kctd11	-0.91	1.51	1.23	enough cells to score	inactive
Defb35	-1.88	1.23	1.35	enough cells to score	active
Garnl3	-1.66	1.34	1.24	enough cells to score	active
Hpgds	-0.99	1.4	1.24	enough cells to score	inactive
Trim16	-0.98	1.25	1.08	enough cells to score	inactive
Vwa7	0.14	1.6	1.56	enough cells to score	inactive
Gimap9	0.7	1.44	1.65	enough cells to score	inactive
2900005J15Rik		1.55	1.53	fewer than 50 cells per well; well left out of scoring	inactive
Hc	-1.71	1.3	1.3	enough cells to score	active
Akr1b10	0.98	1.54	1.38	enough cells to score	inactive
Sall3	-0.82	1.41	1.4	enough cells to score	inactive
Unc119b	1.68	1.35	1.76	enough cells to score	inactive
Vdr	0.65	1.63	1.57	enough cells to score	inactive
Fap	-0.6	1.39	1.49	enough cells to score	inactive
Or9g10	0.95	1.64	1.65	enough cells to score	inactive
Or7a41		1.04	1.07	fewer than 50 cells per well; well left out of scoring	inactive
Zrsr2-ps1		0.962	0.905	fewer than 50 cells per well; well left out of scoring	inactive
Zfand6		1.8	1.64	fewer than 50 cells per well; well left out of scoring	inactive

Active calls, among the entries above:
Gene	p65 translocation robust z-score	nuclear/cytoplasmic p65 ratio, rep 1	nuclear/cytoplasmic p65 ratio, rep 2	low cell count flag	activity call
Defb35	-1.88	1.23	1.35	enough cells to score	active
Garnl3	-1.66	1.34	1.24	enough cells to score	active
Hc	-1.71	1.3	1.3	enough cells to score	active

More results follow.
Gene	p65 translocation robust z-score	nuclear/cytoplasmic p65 ratio, rep 1	nuclear/cytoplasmic p65 ratio, rep 2	low cell count flag	activity call
Dlgap4	3.06	1.95	1.69	enough cells to score	inactive
Zbtb43	1.78	1.65	1.43	enough cells to score	inactive
Lsm5	1.82	2	1.81	enough cells to score	inactive
Arl15	0.76	1.53	1.8	enough cells to score	inactive
Mbp	0.3	1.48	1.36	enough cells to score	inactive
Cspp1		1.4	1.26	fewer than 50 cells per well; well left out of scoring	inactive
Crabp1	-0.39	1.52	1.72	enough cells to score	inactive
Or5k15	1.54	1.84	1.74	enough cells to score	inactive
Tmem184c	0.23	1.57	1.93	enough cells to score	inactive
Ibtk	-0.91	1.51	1.45	enough cells to score	inactive
H2-Eb1	1.17	1.44	1.67	enough cells to score	inactive
Gper1	-0.06	1.47	1.6	enough cells to score	inactive
Gpr153	-0.31	1.43	1.31	enough cells to score	inactive
Arhgap28	1.76	1.68	1.6	enough cells to score	inactive
Igfbp5	-1.83	1.36	1.13	enough cells to score	active
Lrtm1		1.2	1.42	fewer than 50 cells per well; well left out of scoring	inactive
Prol1	0.81	1.86	1.76	enough cells to score	inactive
Opn5	-0.09	1.51	1.57	enough cells to score	inactive
Pla2g2f		1.34	1.39	fewer than 50 cells per well; well left out of scoring	inactive
Dhps	-0.96	1.45	1.39	enough cells to score	inactive
Tfg	0.12	1.51	1.56	enough cells to score	inactive
Zfp281	-0.36	1.52	1.4	enough cells to score	inactive
Dyrk4	-0.23	1.77	1.26	enough cells to score	inactive
Letm1	2.58	2.12	1.92	enough cells to score	inactive
Alkbh6	0.6	1.71	1.76	enough cells to score	inactive
Gria1	1.06	1.51	1.56	enough cells to score	inactive
